# From the supplement of paper PMC8256030
# Several values for one entry are separate records, joined by “and”; a condition that tells them apart may be missing. Equal values may be shown once. Some of the results follow. Repeats in this data set agree poorly, so a single value says little.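 HEK293T cells were given each compound shortly before transfection with a reporter in which red mCherry is followed by the SARS-CoV-2 frameshift element and then GFP in the −1 frame, so GFP appears only after frameshifting.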
# Key:
# HEK293T = experiment: percent viability (nuclei count) relative to control; higher = more viable cells; details: 10 µM; 24 h
# [1] = tested on: SARS-CoV-2 -1 PRF reporter mCherry-FSE-GFP(-1); experiment: mCherry (red) intensity as percent of control; higher = higher upstream reporter expression; details: 10 µM; 24 h; HEK293T
# [2] = tested on: SARS-CoV-2 -1 PRF reporter mCherry-FSE-GFP(-1); experiment: percent effect, decrease of GFP/mCherry ratio (-1 PRF reporter) relative to controls; higher = stronger frameshift inhibition; details: 10 µM; 24 h; HEK293T
Compound,percent viability (HEK293T),mCherry [1],percent effect [2]
CN1[C@@H]2CC[C@H]1C[C@@H](OC(=O)c1cc(Cl)cc(Cl)c1)C2 [bemesetron],102%,110%,1.77%
CCC(=O)O[C@H]1CC[C@H]2[C@@H]3CCC4=CC(=O)CC[C@]4(C)[C@H]3CC[C@]12C,139%,73.3%,1.75%
CC[C@H]1CN2CCc3cc(OC)c(OC)cc3[C@@H]2C[C@@H]1C[C@H]1NCCc2cc(OC)c(OC)cc21,5.72%,15.4%,-15.1%
C=C1C[C@@H]2[C@H](CC[C@]3(C)C(=O)CC[C@@H]23)[C@@]2(C)C=CC(=O)C=C12 [exemestane],364% and 302%,89.7% and 91%,-0.98% and -3.36%
Nc1nc(N)nc(Nc2ccc([As]3SCC(CO)S3)cc2)n1 (stereo not given) [melarsoprol],148%,176%,-19.1%
C[C@]12CCC(=O)C=C1C=C[C@@H]1[C@@H]2CC[C@@]2(C)[C@H]1CC[C@@]2(O)CCC(=O)O,160%,113%,-4.75%
Cc1cc(O)ccc1Cl,203%,116%,-18.9%
CCCC[N+]1(C)[C@H]2CC(OC(=O)C(CO)c3ccccc3)C[C@H]1[C@H]1O[C@H]12 (stereo not given in full) [Scopolamine N-butyl],222%,94.9%,2%
Cc1ccc(NC2=NCCN2)c(Cl)c1 [tolonidine],18.4%,43.6%,-11.9%
O=[N+]([O-])c1ccc([As](=O)(O)O)cc1 [nitarsone],176%,102%,-0.801%
CN1C[C@H](C(=O)N[C@]2(C)O[C@@]3(O)[C@@H]4CCCN4C(=O)[C@H](Cc4ccccc4)N3C2=O)C=C2c3cccc4[nH]cc(c34)C[C@H]21,188%,103%,-0.954%
CN1C(=O)CN=C(c2ccccc2)c2cc(Cl)ccc21 [diazepam],29.2%,94.8%,-14.9%
C[C@H](N)Cc1cccc(O)c1 [gepefrine],265%,96.5%,-6.01%
CN(C)CCc1c[nH]c2cccc(OP(=O)(O)O)c12 [psilocybine],21.7%,91.4%,0.231%
CN[C@H](C)Cc1ccccc1 [levmetamfetamine],81.6%,95.9%,0.239%
CCOC(=O)C1(c2ccccc2)CCN(CCC(C#N)(c2ccccc2)c2ccccc2)CC1,242%,76.9%,-2.62%
CCNC1(c2cccs2)CCCCC1=O (stereo not given),44.3%,115%,-0.55%
CN1[C@@H]2C[C@@H](OC(=O)[C@H](CO)c3ccccc3)C[C@H]1[C@@H]1O[C@@H]12,175%,101%,-1.19%
CCNC1(c2cccs2)CCCCC1=O (stereo not given) [tiletamine],42.1%,74.9%,-0.575%
Cl[C@H]1[C@H](Cl)[C@@H](Cl)[C@@H](Cl)[C@H](Cl)[C@H]1Cl,117%,116%,2.02%

# Looked up one by one from the list above, two records:
Compound,percent viability (HEK293T),mCherry [1],percent effect [2]
CCNC1(c2cccs2)CCCCC1=O (stereo not given),44.3%,115%,-0.55%
C[C@]12CCC(=O)C=C1C=C[C@@H]1[C@@H]2CC[C@@]2(C)[C@H]1CC[C@@]2(O)CCC(=O)O,160%,113%,-4.75%
